# Assay results from PubChem BioAssay AID493014 (National Center for Advancing Translational Sciences (NCATS), 2011).
# Some of the results follow. Further columns of the screen follow, without active or inactive calls. Most of these compounds were active or inconclusive in the main read-out, so they are no random draw. Potencies come from curve fits of mixed quality, noted in brackets.
# Assay: qHTS Assay to Find Inhibitors of Chronic Active B-Cell Receptor Signaling
# Details: ABC-DLBCL IkBa-CBG/CBR reporter, luminescence ratio (green luciferase fused to IkBa over red control in TMD8 lymphoma cells), 4 h
# Outline: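 TMD8 ABC-DLBCL cells carrying doxycycline-inducible green luciferase fused to IkappaBalpha plus unfused red luciferase were exposed to compounds (up to 46 uM) for 4 hrs at 37C. Activity came from the overlap-corrected green/red luminescence ratio.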
# [1] = measured here: CBR red luminescence, cell number
# [2] = measured here: IkBa-CBG green luminescence
SMILES,AC50 [1],AC50 [2]
COc1ccc(NC(=O)/C(C#N)=C\c2ccc(-c3cccc(C(=O)O)c3C)o2)cc1,"15.8 µM [falling, single point]",
O=[N+]([O-])c1cccc(-c2noc(-c3ccco3)n2)c1,"3.98 µM [rising, partial curve, poor fit]",
O=C(O)C(c1ccccc1)N1C(=O)/C(=C\c2ccc(-c3ccccc3Cl)o2)SC1=S (stereo not drawn),"20 µM [falling, single point]",
COc1ccc(Nc2nc(-c3cccnc3)cs2)c(OC)c1,"0.631 µM [rising, full curve]",
Cc1ccc(OCCn2c(C)c(/C=N/n3cnnc3)c3ccccc32)cc1,"12.6 µM [rising, partial curve, poor fit]","14.1 µM [falling, partial curve, poor fit]"
COc1ccc(OCC(=O)c2c(O)c3ccccc3oc2=O)cc1,"5.8 µM [falling, partial curve, poor fit]",
COc1ccc(NC(=O)C2CCCN(S(C)(=O)=O)C2)cc1Cl (stereo not drawn),"0.0891 µM [rising, full curve, poor fit]",
COC/C=C/C1=CC2=CC(=O)C(C)(OC(=O)c3cnc4ccccc4n3)C(=O)C2=CN1CCCCO (stereo not drawn),"3.98 µM [rising, full curve, poor fit]",
OCC(O)CNC(=S)NC1CCCCC1 (stereo not drawn),"31.6 µM [rising, single point]",
COC(=O)C1=C(C)N=C2SC(C)C(=O)N2C1c1cccc(F)c1 (stereo not drawn),"35.5 µM [falling, single point]",
CCN(CC)S(=O)(=O)c1ccc(C)c(NC(=O)COC(=O)CNC(=O)c2ccc(C(C)(C)C)cc2)c1,"25.9 µM [falling, single point]",
Cc1ccccc1Cn1cc(S(=O)(=O)CC(=O)Nc2nccs2)c2ccccc21,"16.4 µM [falling, single point]",
Cc1cc(SCc2ccc([N+](=O)[O-])cc2)nc(=O)[nH]1,"20 µM [rising, single point]",
COc1ccc2oc(=O)c(/C(C)=N/NC(=O)c3ccncc3)cc2c1,"20.6 µM [falling, partial curve, poor fit]",
Cc1cccc(N2C(=O)CC(N(O)c3ccccc3)C2=O)c1 (stereo not drawn),"15.8 µM [falling, partial curve, poor fit]",
COc1ccc(S(=O)(=O)N2CCC(C(=O)NCc3ccccn3)CC2)cc1Cl,"2.91 µM [falling, full curve, poor fit]",
CCCCN1C(=O)/C(=C/C=C2\SCCN2C)SC1=S,"10 µM [rising, partial curve, poor fit]",
Cc1ccc(S(=O)(=O)N(Cc2ccccc2)c2ccccc2C(=O)NCc2ccco2)cc1,"12.6 µM [falling, partial curve, poor fit]",
CCCCCCCC(=O)NN=C1CCN(Cc2ccccc2)CC1,"4.11 µM [falling, single point]",
CN(Cc1ccccc1)C(=O)COC(=O)c1cc([N+](=O)[O-])ccc1N1CCOCC1,"20.6 µM [rising, partial curve]",

# Sorted by length of the SMILES (descending): three of the compounds above.
SMILES,AC50 [1],AC50 [2]
Cc1ccc(OCCn2c(C)c(/C=N/n3cnnc3)c3ccccc32)cc1,"12.6 µM [rising, partial curve, poor fit]","14.1 µM [falling, partial curve, poor fit]"
Cc1cc(SCc2ccc([N+](=O)[O-])cc2)nc(=O)[nH]1,"20 µM [rising, single point]",
O=[N+]([O-])c1cccc(-c2noc(-c3ccco3)n2)c1,"3.98 µM [rising, partial curve, poor fit]",

# Further structures.

SMILES,AC50 [1],AC50 [2]
CCN1CCN(C(=O)c2cc(-c3ccc(Cl)s3)nc3ccccc23)CC1,"22.4 µM [falling, partial curve, poor fit]",
CCC(CC)c1nnc(NC(=O)c2ccc3ccccc3n2)s1,"1.26 µM [rising, full curve, poor fit]",
O=C(Nc1ccc2ccccc2n1)Nc1cccs1,"0.562 µM [rising, full curve]",
COc1cccc(-n2nnnc2SCC(=O)Nc2ccccc2OC)c1,"7.08 µM [falling, partial curve]",
COc1ccccc1Nc1ncnc2c1cnn2-c1cccc(C)c1,"8.91 µM [falling, partial curve]",
CS(=O)(=O)N1CCN(C(=O)Cc2ccccc2)CC1,"14.1 µM [rising, partial curve, poor fit]",
Cc1cc(NC(=O)c2cccc(Br)c2)n[nH]1,"16.4 µM [falling, partial curve, poor fit]",
COc1ccc2sc(-c3ccccc3OC)c(-c3ccc(OCCN4CCOCC4)cc3)c2c1,,"20.6 µM [falling, single point]"
Cc1cc(OCC(=O)Nc2ccccc2N2CCCC2)ccc1C(C)C,"25.9 µM [rising, single point]",
Cc1ccccc1NC(=O)c1ccccc1NC(=O)CCC(=O)O,"32.6 µM [rising, partial curve, poor fit]",
CCOc1ccc(/C=C2\SC(=S)N(CCC(=O)Nc3ccccc3C(=O)O)C2=O)cc1,"6.31 µM [rising, single point]",
COc1ccc(C(=O)N[C@H](C(=O)Nc2nc3ccccc3[nH]2)C(C)C)cc1,"15.8 µM [falling, partial curve]","3.16 µM [falling, full curve, poor fit]"
Cc1nc(NC(CC(C)C)C(=O)O)c2nc(C)oc2n1 (stereo not drawn),"29.1 µM [falling, single point]","32.6 µM [rising, partial curve, poor fit]"
CC(=O)c1cccc(NC(=O)c2ccc3c(c2)OCO3)c1,"17.8 µM [falling, single point]",
C/C(=N\NC(=O)c1ccncc1)c1ccc(N(C)C)cc1,"35.5 µM [falling, single point]",
CC1CCCCN1C(=O)Nc1cccc(Cl)c1 (stereo not drawn),"22.4 µM [rising, single point]",
CCCNC(=O)NS(=O)(=O)c1cnccc1Sc1ccc(Cl)c(Cl)c1,"3.98 µM [rising, full curve, poor fit]",
CN1Cc2cc(C(=O)c3cc(Cl)cc(CSc4ncccn4)c3O)cnc2NC1=O,"0.891 µM [rising, full curve, poor fit]","2 µM [falling, full curve]"
O=C(CN1C(=O)C2C3C=CC(C3)C2C1=O)Nc1ccc(F)cc1 (stereo not drawn),"0.501 µM [falling, full curve, poor fit]",
